{"source": "paper PMC6322583", "binders": {"B1": {"name": "YN–TRM1 (TON1 RECRUITMENT MOTIF1 fused to the N-terminal half of YFP) (protein, UniProt Q9S823 1-905)", "chain": "MSAKLLYNLSDENPNLNKQFGCMNGIFQVFYRQHCPATPVTVSGGAEKSLPPGERRGSVGETNMESDKETERSSTKKKKSAAKEKHRVSFESSSRPSFSSSPRSSSFSSAEVSTTASQFDQPGENLIREQPNGGLMMPYDLKELVKGSINREIRTRGEEASFTQQQQPISARSSMLLLKESSLRSPCRSSNEWNEGRGAAMKFKESHRLSYDEREMRNNGFRVGSKLKETPRLSLDSRSNSFRSPRADAARSSCPEEPATMTHRRSSSSVVAKLMGLEVIADNSDTEQRRENRFCDSPRPMSRVEPTALQRSRSVDSIKRIPASAASKFPMEPAPWKQMKAGDSALTVYGEIQKRLTQLEFKKSGKDLRALKQILEAMEKTQQLIDESRDDGTLSTTTLMQRTHKPVSAATSPARNFKSSSIVVMKSAAPVSTSPLPQNVTLPNVKVGNSRQTRKVTSGKQNAMDLTPRPGLYKGQLDSTKSNSPKTVRSRQALAADAGSMTKSGRSQQHSVSPRTQPKKLGFEKQTRPTTPKSEPGKRQLGRQQTEVASPRRKQMIKPHSTLQQPDDRLSDARSDLRSLRSDSNISLGSNVDIEVTSRHRLERNCDFPEQHTPKQRSPDFGIKQDRPSLKPLKVTVEQPSPVSVLDAVFDEEDSPSPVRKISLSFKEEDALRSEESEWINKPTSFCRSVPFPQSNRGPMKPSSDHFECSPEEGADFKSGNHKYILEILLASGILRDLEYSMISFQLHQTRLPINPGLFFILEQNKASNVTLPDNKHRGRGFRQQQTNPTETIRRKLVFDTVNEILARKFTAEGCIKPRLIANPLKKLEKISKEEQLLQTLCSEIDRLQQNNSNCILEDDEEDIIWEDLQSQSMNLKEFEGETPGIVLDIERMIFRDLVNEVCFC"}}, "biological_target": "YC–TON1 (TONNEAU1 fused to the C-terminal half of YFP)", "test": "split reporter; BiFC: YN and YC fusions transiently co-expressed in N. benthamiana leaves by Agrobacterium infiltration; YFP fluorescence by confocal imaging with identical laser settings", "note": "These are yes or no findings as the source states them, for the method shown. In cells and extracts the contact can be indirect. Binding calls can cover weak binding; strength is not graded here. Where a sequence is shown, tags or fusion partners need not be part of it."}
{"binder": "B1", "values": [{"measurement": "binding", "result": "binds"}]}
